Reference: PubChem BioAssay AID1671190 (National Center for Advancing Translational Sciences (NCATS), 2021)
Values joined by “and” are separate entries in the source; they are usually repeats but may differ in a detail not shown here. Equal entries are not always repeated. Screen size: about 580,000 compounds; about 6,100 (1.1%) were called active. The shares of active, inactive and inconclusive entries below differ from those in the screen. Calls come from the whole dose curve; as a rule, active = well fitted inhibition curve with a large enough effect; inconclusive = small, poorly fitted or top-dose-only effect, or another doubt; inactive = no such curve, though single readings can be large or run the other way. Potencies beside an inconclusive call are fits to weak or partial responses and may not hold up.

The chains behind the UniProt entries cited, without tags or fusion partners. Where a name states a change or a piece, a line headed by the entry shows the natural chain unless it says otherwise.
UniProt P18054: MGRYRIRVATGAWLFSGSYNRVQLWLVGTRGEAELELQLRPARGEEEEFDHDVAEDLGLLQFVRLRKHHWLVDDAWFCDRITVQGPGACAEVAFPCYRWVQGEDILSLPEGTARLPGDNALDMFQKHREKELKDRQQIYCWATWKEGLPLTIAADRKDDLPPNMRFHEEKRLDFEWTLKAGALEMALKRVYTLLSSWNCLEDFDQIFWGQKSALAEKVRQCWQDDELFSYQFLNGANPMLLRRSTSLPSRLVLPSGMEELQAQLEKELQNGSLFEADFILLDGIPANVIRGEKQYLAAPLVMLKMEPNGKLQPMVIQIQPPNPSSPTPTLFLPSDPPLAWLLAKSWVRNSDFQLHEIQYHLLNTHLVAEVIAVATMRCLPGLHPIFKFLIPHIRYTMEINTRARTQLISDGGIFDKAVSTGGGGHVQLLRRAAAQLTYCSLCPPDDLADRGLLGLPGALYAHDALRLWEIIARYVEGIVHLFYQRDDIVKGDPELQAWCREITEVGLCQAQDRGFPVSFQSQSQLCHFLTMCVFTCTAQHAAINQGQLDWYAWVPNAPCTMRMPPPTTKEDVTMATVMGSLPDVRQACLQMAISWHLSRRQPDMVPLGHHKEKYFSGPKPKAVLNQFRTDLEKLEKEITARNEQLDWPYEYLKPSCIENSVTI

Molecular target: Polyunsaturated fatty acid lipoxygenase ALOX12 (Homo sapiens) (UniProt P18054)
Experiment: Primary qHTS assay for inhibitors of human arachidonate 12S-lipoxygenase (ALOX12): Round 2
Conditions: purified 12hLO, xylenol orange hydroperoxide absorbance; series mostly up to 108 µM
Outline: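 Purified human 12hLO at 150 nM in 25 mM Hepes, 0.01% Triton X-100, pH 7.0, preincubated 15 min at room temperature with compound. Reaction started with 40 uM arachidonic acid, 30 min at room temperature. Hydroperoxide measured by Fe-xylenol orange, 573/405 nm absorbance ratio.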
Potency is the fitted concentration of half-maximal effect.

Structure (SMILES) | Potency
COc1ccc(/C=N/Nc2nc(C(=O)O)cs2)cc1 | inactive
COc1cc2nc(SCc3ccc(C(F)(F)F)cc3)n(Cc3cccs3)c(=N)c2cc1OC | inactive
O=C(O)CC(Cn1[nH]nnc1=S)c1ccccc1 (configuration not stated) | inconclusive: 35.5 µM [inhibitor, partial curve, poor fit]
O=C(c1cc(O)c(O)c([N+](=O)[O-])c1)c1ccccc1F | inconclusive: 7.94 µM [inhibitor, full curve, poor fit]
CN(C)/C=C/C(=O)c1ccn(S(=O)(=O)c2ccccc2)c1 | active: 50.1 µM
COc1ccc(OC)c(NC(=O)c2cnc3n(c2=O)CCS3)c1 | inconclusive: 89.1 µM [inhibitor, single point]
CCNC(=O)CN(CC)C(=O)c1n[nH]c(=O)c2ccccc12 | inactive
CN(C)c1ccc(CN2CCn3c(nnc3C3CCNCC3)C2)cc1 | inconclusive: 4.03 µM [inhibitor, single point]
Cn1nc(-c2nc(C3CCOC3)no2)cc1-c1ccccc1 (configuration not stated) | inconclusive: 7.08 µM [inhibitor, full curve, poor fit]
Cc1cccc(N2CCN(C(=O)c3ccc4c(c3)N(Cc3cccc(Cl)c3)C(=O)c3ccccc3S4=O)CC2)c1C (configuration not stated) | inactive
Cc1cc(N)cc(-c2nc3cc(C(C)C)ccc3o2)c1O | inactive
Cc1sc(N)c(C#N)c1-c1ccc(Cl)cc1Cl | inconclusive: 50.1 µM [inhibitor, single point]
COc1ccc(-c2nnc(OCc3nc4ccccc4n3C)c3ccccc23)cc1 | inactive
CC1Cc2ccccc2N1Cc1nc2scc(-c3cccs3)c2c(=O)[nH]1 (configuration not stated) | inconclusive: 0.178 µM [inhibitor, full curve, poor fit]
Cc1ccc2nc(N3CCN(C(=O)CCCC(=O)O)CC3)nc(-c3ccccc3)c2c1 | inactive and inconclusive: 79.4 µM [inhibitor, single point]
COC(=O)c1sccc1NC(=O)CN(C)NS(=O)(=O)c1ccc(Cl)cc1 | inconclusive: 39.8 µM [inhibitor, partial curve, poor fit]
Cc1nn(CCC#N)c(C)c1[C@@H]1C=C[C@@H](NS(=O)(=O)c2ccccc2)C1 | inconclusive: 126 µM [inhibitor, single point]
CCONC(=O)COc1cccc(C(C)C)c1 | inconclusive: 0.794 µM [inhibitor, full curve, poor fit]
CC(CC(=O)C(C#N)C(=O)Nc1ccccc1F)c1ccc(F)cc1 (configuration not stated) | inactive
CCn1c(SCC(=O)OC)nc2sc3c(c2c1=O)CCC3 | inconclusive: 11.2 µM [inhibitor, partial curve, poor fit]
COc1cc(/C=C2/C(=N)N3C=CSC3=NC2=O)ccc1OCCCOc1ccccc1C | inactive

Structure (SMILES) | Potency
CN(Cc1cn(Cc2cccc(Cl)c2)nn1)C1CN(Cc2cn(Cc3cccc(Cl)c3)nn2)S(=O)(=O)C1 (configuration not stated) | inconclusive: 50.1 µM [inhibitor, partial curve]
CCC(CC)C(=O)Nc1cccc(/C(C)=N/NC(=O)c2c(Br)cnn2C)c1 | inconclusive: 5.01 µM [inhibitor, partial curve, poor fit]
O=C(/C=C/Nc1ccccc1F)c1cccs1 | inconclusive: 39.8 µM [inhibitor, full curve, poor fit]
O=C(COc1ccc(F)cc1)OCc1cc(=O)n2nc(C3CC3)sc2n1 | inconclusive: 100 µM [inhibitor, partial curve, poor fit]
COc1ccc(NC(=O)CN(C)C(=O)/C=C/c2cn(Cc3ccccc3)nc2-c2cccnc2)cc1 | inconclusive: 35.5 µM [inhibitor, partial curve, poor fit]
CCOC(=O)c1cc2c(c(CCO)n1)[C@@H](CCO)N(S(=O)(=O)C(C)(C)C)C2 | inconclusive: 4.47 µM [inhibitor, full curve, poor fit]
COc1ccc(-c2cn(CCC(=O)O)c(-c3ccc(Cl)nc3)n2)cc1 | inconclusive: 39.8 µM [inhibitor, partial curve, poor fit]
CCc1noc(-c2cccn3c(CNC(=O)c4ccco4)nnc23)n1 | inactive
CCCCn1c(N)c(N(CC(C)C)C(=O)CN(C)S(=O)(=O)c2ccc(F)cc2)c(=O)[nH]c1=O | inconclusive: 50.1 µM [inhibitor, partial curve, poor fit]
CCC(=O)N1N=C(c2ccc(NS(C)(=O)=O)cc2)CC1c1ccc(F)cc1 (configuration not stated) | inactive
Cc1sc2c(c1C)C(O)=C(C(=O)Nc1ccccc1)S(=O)(=O)N2C | inconclusive: 112 µM [inhibitor, partial curve, poor fit]
Cc1ccc(N=CC=C2OC(C)(C)C(C)(C)O2)c(C)c1 | inactive
CSc1ccc(CNC(=O)c2ncoc2-c2cccs2)cc1 | inactive
Cc1ccc(N(CC(=O)N2CCOCC2)S(C)(=O)=O)cc1C | inconclusive: 1.58 µM [inhibitor, single point]
NC1=NC[C@@H](Cc2ccc(O)cc2)N1CCC12CC3CC(CC(C3)C1)C2 | inconclusive: 44.7 µM [inhibitor, partial curve, poor fit]
O=C(Nc1ccc(F)cc1)N[C@H]1[C@H](O)[C@@H](N2CCCCC2)[C@@H]2OC[C@H]1O2 | inconclusive: 12.6 µM [inhibitor, full curve]
COc1ccc(Nc2nc(C)c(-c3ccccc3)s2)cc1 | inconclusive: 2 µM [inhibitor, full curve, poor fit]
CCOc1ccc(CCNC(=O)CCSCc2cccc(Cl)c2)cc1OCC | inconclusive: 63.1 µM [inhibitor, partial curve, poor fit]
CCOC(=O)N1CCN(c2ccc(O)cc2)CC1 | inconclusive: 50.1 µM [inhibitor, partial curve, poor fit]
COc1cc(-c2ccc3c(=O)c4ccccc4sc3c2)cc(OC)c1OC | inactive
CCN1CCCC1CN(Cc1cc2ccc(C)cc2[nH]c1=O)C(=S)Nc1ccc(F)cc1 (configuration not stated) | inconclusive: 56.2 µM [inhibitor, partial curve, poor fit]

A few values from the entries so far.
Under Potency, Cc1ccc(N(CC(=O)N2CCOCC2)S(C)(=O)=O)cc1C reads inconclusive: 1.58 µM [inhibitor, single point]
Under Potency, COC(=O)c1sccc1NC(=O)CN(C)NS(=O)(=O)c1ccc(Cl)cc1 reads inconclusive: 39.8 µM [inhibitor, partial curve, poor fit]
